Drawing on patent US20230322941A1, this text covers binding for 21 molecules.

Protein sequences, listed by entry. Tags and fused reporters are not part of them. Lines headed by an entry give the natural chain unless they say otherwise; changes in a name come on top.
UniProt P25942: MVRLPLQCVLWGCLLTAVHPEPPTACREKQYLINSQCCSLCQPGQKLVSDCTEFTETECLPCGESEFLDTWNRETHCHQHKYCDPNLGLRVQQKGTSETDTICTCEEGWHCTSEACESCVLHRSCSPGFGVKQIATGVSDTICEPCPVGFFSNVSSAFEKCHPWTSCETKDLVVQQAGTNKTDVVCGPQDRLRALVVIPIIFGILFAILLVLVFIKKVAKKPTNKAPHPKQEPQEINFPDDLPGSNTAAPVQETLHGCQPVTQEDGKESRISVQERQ

The test concerns the target human-CD40 monomer (human) (UniProt P25942). Kind of test: SPR 2 pt screen.

These are yes or no findings as the source states them, for the method shown. Some entries that bind do so weakly or less than the wild type.

B1: humanized Y1238 hz27 (hz-HC6/hz-LC2) (antibody, IgG1, V domains shown)
VH: QVQLVQSGAEVKKPGASVKVSCKASGYAFTNYLIEWVRQRPGQGLEWMGVINPGSGGTNYNEKFKGRVTLTADKSISTAYMELSRLRSDDTAVYYCARSQLGRRFDYWGQGTLVTVSS
VL: DIQMTQSPSSLSASVGDRVTITCKASQDVRTGVAWYQQKPGKAPKLLIYSASYRNTGVPSRFSGSRSGTDFTFTISSLQPEDIATYYCQQHYSPPYTFGGGTKVEIK
Take B1: the binding entry is “binds”.

B2: humanized Y1238 hz40 (hz-HC8/hz-LC5) (antibody, IgG1, V domains shown)
VH: QVQLVQSGAEVVKPGASVKVSCKASGYAFTNYLIEWVRQRPGQGLEWMGVINPGSGGTNYNEKFKGRVTLTADKSSSTAYMQLSRLRSDDTAVYFCARSQLGRRFDYWGQGTLVTVSS
VL: DIQMTQSPSSLSASVGDRVTITCKASQDVRTGVAWYQQKPGQAPKLLIYSASYRNTGVPSRFSGSRSGTDFTFTISSLQPEDIAVYYCQQHYSPPYTFGGGTKVEIK
As to B2, the binding entry is recorded as “binds”.

B3: humanized Y1238 hz39 (hz-HC8/hz-LC4) (antibody, IgG1, V domains shown)
VH: QVQLVQSGAEVVKPGASVKVSCKASGYAFTNYLIEWVRQRPGQGLEWMGVINPGSGGTNYNEKFKGRVTLTADKSSSTAYMQLSRLRSDDTAVYFCARSQLGRRFDYWGQGTLVTVSS
VL: DIQMTQSPSSLSASVGDRVTITCKASQDVRTGVAWYQQKPGQSPKLLIYSASYRNTGVPSRFSGSRSGTDFTFTISSLQAEDIAVYYCQQHYSPPYTFGGGTKVEIK
In the case of B3, the binding result was “binds”.

B4: humanized Y1238 hz30 (hz-HC6/hz-LC5) (antibody, IgG1, V domains shown)
VH: QVQLVQSGAEVKKPGASVKVSCKASGYAFTNYLIEWVRQRPGQGLEWMGVINPGSGGTNYNEKFKGRVTLTADKSISTAYMELSRLRSDDTAVYYCARSQLGRRFDYWGQGTLVTVSS
VL: DIQMTQSPSSLSASVGDRVTITCKASQDVRTGVAWYQQKPGQAPKLLIYSASYRNTGVPSRFSGSRSGTDFTFTISSLQPEDIAVYYCQQHYSPPYTFGGGTKVEIK
Regarding B4, the binding entry is “binds”.

B5: humanized Y1238 hz38 (hz-HC8/hz-LC3) (antibody, IgG1, V domains shown)
VH: QVQLVQSGAEVVKPGASVKVSCKASGYAFTNYLIEWVRQRPGQGLEWMGVINPGSGGTNYNEKFKGRVTLTADKSSSTAYMQLSRLRSDDTAVYFCARSQLGRRFDYWGQGTLVTVSS
VL: DIQMTQSPSSLSASVGDRVTITCKASQDVRTGVAWYQQKPGQSPKLLIYSASYRNTGVPSRFSGSRSGTDFTFTISSLQPEDIAVYYCQQHYSPPYTFGGGTKVEIK
On to B5, for which the binding entry is “binds”.

B6: humanized Y1238 hz42 (hz-HC9/hz-LC2) (antibody, IgG1, V domains shown)
VH: QVQLVQSGAEVVKPGASVKVSCKASGYAFTNYLIEWVRQRPGQGLEWMGVINPGSGGTNYNEKFKGRVTLTADKSSSTAYMQLSRLRSDDTAVYFCARSQLGRRFDYWGQGTTVTVSS
VL: DIQMTQSPSSLSASVGDRVTITCKASQDVRTGVAWYQQKPGKAPKLLIYSASYRNTGVPSRFSGSRSGTDFTFTISSLQPEDIATYYCQQHYSPPYTFGGGTKVEIK
For B6, the binding result is “binds”.

B7: humanized Y1238 hz34 (hz-HC7/hz-LC4) (antibody, IgG1, V domains shown)
VH: QVQLVQSGAEVVKPGASVKVSCKASGYAFTNYLIEWVRQRPGQGLEWMGVINPGSGGTNYNEKFKGRVTMTADKSSSTAYMQLSRLRSDDTAVYFCARSQLGRRFDYWGQGTLVTVSS
VL: DIQMTQSPSSLSASVGDRVTITCKASQDVRTGVAWYQQKPGQSPKLLIYSASYRNTGVPSRFSGSRSGTDFTFTISSLQAEDIAVYYCQQHYSPPYTFGGGTKVEIK
Turning to B7, the binding result is reported as “binds”.

B8: humanized Y1238 hz41 (hz-HC9/hz-LC1) (antibody, IgG1, V domains shown)
VH: QVQLVQSGAEVVKPGASVKVSCKASGYAFTNYLIEWVRQRPGQGLEWMGVINPGSGGTNYNEKFKGRVTLTADKSSSTAYMQLSRLRSDDTAVYFCARSQLGRRFDYWGQGTTVTVSS
VL: DIQMTQSPSSLSASVGDRVTITCKASQDVRTGVAWYQQKPGKAPKLLIYSASYRNTGVPSRFSGSGSGTDFTFTISSLQPEDIATYYCQQHYSPPYTFGGGTKVEIK
Consider B8, for which the binding entry is listed as “binds”.

B9: humanized Y1238 hz46 (hz-HC10/hz-LC1) (antibody, IgG1, V domains shown)
VH: QVQLVQSGAEVKKPGASVKVSCKASGYAFTNYLIEWVRQRPGQGLEWMGVINPGSGGTNYNEKFKGRVTMTRDKSISTAYMELSRLRSDDTAVYYCARSQLGRRFDYWGQGTLVTVSS
VL: DIQMTQSPSSLSASVGDRVTITCKASQDVRTGVAWYQQKPGKAPKLLIYSASYRNTGVPSRFSGSGSGTDFTFTISSLQPEDIATYYCQQHYSPPYTFGGGTKVEIK
Regarding B9, the binding entry was “binds”.

B10: humanized Y1238 hz37 (hz-HC8/hz-LC2) (antibody, IgG1, V domains shown)
VH: QVQLVQSGAEVVKPGASVKVSCKASGYAFTNYLIEWVRQRPGQGLEWMGVINPGSGGTNYNEKFKGRVTLTADKSSSTAYMQLSRLRSDDTAVYFCARSQLGRRFDYWGQGTLVTVSS
VL: DIQMTQSPSSLSASVGDRVTITCKASQDVRTGVAWYQQKPGKAPKLLIYSASYRNTGVPSRFSGSRSGTDFTFTISSLQPEDIATYYCQQHYSPPYTFGGGTKVEIK
For the molecule B10, the binding result is “binds”.

B11: humanized Y1238 hz45 (hz-HC9/hz-LC5) (antibody, IgG1, V domains shown)
VH: QVQLVQSGAEVVKPGASVKVSCKASGYAFTNYLIEWVRQRPGQGLEWMGVINPGSGGTNYNEKFKGRVTLTADKSSSTAYMQLSRLRSDDTAVYFCARSQLGRRFDYWGQGTTVTVSS
VL: DIQMTQSPSSLSASVGDRVTITCKASQDVRTGVAWYQQKPGQAPKLLIYSASYRNTGVPSRFSGSRSGTDFTFTISSLQPEDIAVYYCQQHYSPPYTFGGGTKVEIK
Take B11: the binding result is “binds”.

B12: humanized Y1238 hz44 (hz-HC9/hz-LC4) (antibody, IgG1, V domains shown)
VH: QVQLVQSGAEVVKPGASVKVSCKASGYAFTNYLIEWVRQRPGQGLEWMGVINPGSGGTNYNEKFKGRVTLTADKSSSTAYMQLSRLRSDDTAVYFCARSQLGRRFDYWGQGTTVTVSS
VL: DIQMTQSPSSLSASVGDRVTITCKASQDVRTGVAWYQQKPGQSPKLLIYSASYRNTGVPSRFSGSRSGTDFTFTISSLQAEDIAVYYCQQHYSPPYTFGGGTKVEIK
For the molecule B12, the binding result is recorded as “binds”.

B13: humanized Y1238 hz35 (hz-HC7/hz-LC5) (antibody, IgG1, V domains shown)
VH: QVQLVQSGAEVVKPGASVKVSCKASGYAFTNYLIEWVRQRPGQGLEWMGVINPGSGGTNYNEKFKGRVTMTADKSSSTAYMQLSRLRSDDTAVYFCARSQLGRRFDYWGQGTLVTVSS
VL: DIQMTQSPSSLSASVGDRVTITCKASQDVRTGVAWYQQKPGQAPKLLIYSASYRNTGVPSRFSGSRSGTDFTFTISSLQPEDIAVYYCQQHYSPPYTFGGGTKVEIK
Take B13: the binding entry was “binds”.

B14: humanized Y1238 hz33 (hz-HC7/hz-LC3) (antibody, IgG1, V domains shown)
VH: QVQLVQSGAEVVKPGASVKVSCKASGYAFTNYLIEWVRQRPGQGLEWMGVINPGSGGTNYNEKFKGRVTMTADKSSSTAYMQLSRLRSDDTAVYFCARSQLGRRFDYWGQGTLVTVSS
VL: DIQMTQSPSSLSASVGDRVTITCKASQDVRTGVAWYQQKPGQSPKLLIYSASYRNTGVPSRFSGSRSGTDFTFTISSLQPEDIAVYYCQQHYSPPYTFGGGTKVEIK
Regarding B14, the binding result is “binds”.

B15: humanized Y1238 hz32 (hz-HC7/hz-LC2) (antibody, IgG1, V domains shown)
VH: QVQLVQSGAEVVKPGASVKVSCKASGYAFTNYLIEWVRQRPGQGLEWMGVINPGSGGTNYNEKFKGRVTMTADKSSSTAYMQLSRLRSDDTAVYFCARSQLGRRFDYWGQGTLVTVSS
VL: DIQMTQSPSSLSASVGDRVTITCKASQDVRTGVAWYQQKPGKAPKLLIYSASYRNTGVPSRFSGSRSGTDFTFTISSLQPEDIATYYCQQHYSPPYTFGGGTKVEIK
With B15, the binding result was “binds”.

B16: humanized Y1238 hz36 (hz-HC8/hz-LC1) (antibody, IgG1, V domains shown)
VH: QVQLVQSGAEVVKPGASVKVSCKASGYAFTNYLIEWVRQRPGQGLEWMGVINPGSGGTNYNEKFKGRVTLTADKSSSTAYMQLSRLRSDDTAVYFCARSQLGRRFDYWGQGTLVTVSS
VL: DIQMTQSPSSLSASVGDRVTITCKASQDVRTGVAWYQQKPGKAPKLLIYSASYRNTGVPSRFSGSGSGTDFTFTISSLQPEDIATYYCQQHYSPPYTFGGGTKVEIK
B16: the binding result is listed as “binds”.

B17: humanized Y1238 hz43 (hz-HC9/hz-LC3) (antibody, IgG1, V domains shown)
VH: QVQLVQSGAEVVKPGASVKVSCKASGYAFTNYLIEWVRQRPGQGLEWMGVINPGSGGTNYNEKFKGRVTLTADKSSSTAYMQLSRLRSDDTAVYFCARSQLGRRFDYWGQGTTVTVSS
VL: DIQMTQSPSSLSASVGDRVTITCKASQDVRTGVAWYQQKPGQSPKLLIYSASYRNTGVPSRFSGSRSGTDFTFTISSLQPEDIAVYYCQQHYSPPYTFGGGTKVEIK
For B17, the binding entry is given as “binds”.

B18: humanized Y1238 hz28 (hz-HC6/hz-LC3) (antibody, IgG1, V domains shown)
VH: QVQLVQSGAEVKKPGASVKVSCKASGYAFTNYLIEWVRQRPGQGLEWMGVINPGSGGTNYNEKFKGRVTLTADKSISTAYMELSRLRSDDTAVYYCARSQLGRRFDYWGQGTLVTVSS
VL: DIQMTQSPSSLSASVGDRVTITCKASQDVRTGVAWYQQKPGQSPKLLIYSASYRNTGVPSRFSGSRSGTDFTFTISSLQPEDIAVYYCQQHYSPPYTFGGGTKVEIK
As for B18, the binding entry was “binds”.

B19: humanized Y1238 hz29 (hz-HC6/hz-LC4) (antibody, IgG1, V domains shown)
VH: QVQLVQSGAEVKKPGASVKVSCKASGYAFTNYLIEWVRQRPGQGLEWMGVINPGSGGTNYNEKFKGRVTLTADKSISTAYMELSRLRSDDTAVYYCARSQLGRRFDYWGQGTLVTVSS
VL: DIQMTQSPSSLSASVGDRVTITCKASQDVRTGVAWYQQKPGQSPKLLIYSASYRNTGVPSRFSGSRSGTDFTFTISSLQAEDIAVYYCQQHYSPPYTFGGGTKVEIK
With B19, the binding entry is reported as “binds”.

B20: humanized Y1238 hz47 (hz-HC10/hz-LC2) (antibody, IgG1, V domains shown)
VH: QVQLVQSGAEVKKPGASVKVSCKASGYAFTNYLIEWVRQRPGQGLEWMGVINPGSGGTNYNEKFKGRVTMTRDKSISTAYMELSRLRSDDTAVYYCARSQLGRRFDYWGQGTLVTVSS
VL: DIQMTQSPSSLSASVGDRVTITCKASQDVRTGVAWYQQKPGKAPKLLIYSASYRNTGVPSRFSGSRSGTDFTFTISSLQPEDIATYYCQQHYSPPYTFGGGTKVEIK
As for B20, the binding result is reported as “binds”.

B21: humanized Y1238 hz31 (hz-HC7/hz-LC1) (antibody, IgG1, V domains shown)
VH: QVQLVQSGAEVVKPGASVKVSCKASGYAFTNYLIEWVRQRPGQGLEWMGVINPGSGGTNYNEKFKGRVTMTADKSSSTAYMQLSRLRSDDTAVYFCARSQLGRRFDYWGQGTLVTVSS
VL: DIQMTQSPSSLSASVGDRVTITCKASQDVRTGVAWYQQKPGKAPKLLIYSASYRNTGVPSRFSGSGSGTDFTFTISSLQPEDIATYYCQQHYSPPYTFGGGTKVEIK
As for B21, the binding entry was “binds”.
